Data reported in paper PMC7290564.
These are yes or no findings as the source states them, for the method shown. In cells and extracts the contact can be indirect. Some results given as binding are weak or reduced against the parent protein; the word gives no strength.

Chains of the proteins cited; added tags and fusions are not shown. Lines headed by an entry give the natural chain unless they say otherwise; changes in a name come on top.
UniProt Q60613: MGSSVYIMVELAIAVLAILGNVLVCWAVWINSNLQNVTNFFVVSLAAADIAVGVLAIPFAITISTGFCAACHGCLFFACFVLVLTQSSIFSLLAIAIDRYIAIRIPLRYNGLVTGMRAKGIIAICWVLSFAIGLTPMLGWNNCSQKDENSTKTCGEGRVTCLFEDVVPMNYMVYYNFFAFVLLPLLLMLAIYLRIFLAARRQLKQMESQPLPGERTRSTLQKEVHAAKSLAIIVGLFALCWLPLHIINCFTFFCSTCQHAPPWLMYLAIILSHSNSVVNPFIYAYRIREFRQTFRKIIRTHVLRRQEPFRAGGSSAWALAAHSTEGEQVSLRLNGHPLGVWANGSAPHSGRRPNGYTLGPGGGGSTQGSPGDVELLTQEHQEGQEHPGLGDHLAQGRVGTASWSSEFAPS
UniProt Q9NZU7: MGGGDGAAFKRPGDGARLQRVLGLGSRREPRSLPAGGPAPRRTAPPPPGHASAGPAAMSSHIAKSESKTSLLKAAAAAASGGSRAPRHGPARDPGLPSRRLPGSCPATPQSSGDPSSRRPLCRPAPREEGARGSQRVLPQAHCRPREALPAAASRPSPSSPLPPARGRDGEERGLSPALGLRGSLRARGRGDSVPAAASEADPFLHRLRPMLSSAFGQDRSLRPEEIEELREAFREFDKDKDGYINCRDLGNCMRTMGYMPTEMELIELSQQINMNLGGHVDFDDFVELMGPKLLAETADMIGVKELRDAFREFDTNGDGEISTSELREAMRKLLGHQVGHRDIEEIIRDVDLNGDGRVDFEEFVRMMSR

Experiments:
[1] = molecular target: NMDA receptor GluN1 subunit, endogenous in mouse primary microglia and hippocampal neurons (mouse (endogenous in primary microglia and neurons)) (UniProt P35438); test: proximity ligation; in situ PLA on fixed, permeabilised mouse hippocampal primary neurons with anti-A2AR and anti-GluN1 antibodies; from wild type (control) or APPSw,Ind mice
[2] = molecular target: NMDA receptor GluN1 subunit, endogenous in mouse primary microglia and hippocampal neurons (mouse (endogenous in primary microglia and neurons)) (UniProt P35438); test: proximity ligation; in situ PLA on fixed, permeabilised mouse primary microglia with anti-A2AR and anti-GluN1 antibodies; resting or activated with 1 uM LPS and 200 U/mL IFN-gamma; from wild type (control) or APPSw,Ind mice
[3] = molecular target: reconstituted NMDA receptor fused to RLuc (GluN1-RLuc co-expressed with GluN2B) (UniProt Q05586); test: FRET or BRET; BRET saturation in living HEK-293T cells 48 h after transfection; constant GluN1-RLuc (0.3 ug cDNA) and GluN2 (0.2 ug cDNA), increasing A2AR-YFP (0.1-0.5 ug cDNA) or caldendrin-YFP (0.1-0.7 ug cDNA); 5 uM coelenterazine H; net BRET in mBU

Row | binding [1] | binding [2] | binding [3] | Substance
1 | binds | binds | – | adenosine A2A receptor, endogenous in mouse primary microglia and hippocampal neurons (from UniProt Q60613 1-410)
2 | – | – | no binding | caldendrin-YFP fusion protein (from UniProt Q9NZU7 1-370)
